# According to the supplement of paper PMC8728848:
# The other results are listed elsewhere or left out.
# Experiments:
# Test in all cases: glycan array binding signal (z-score within array); higher = stronger binding
# Conditions in all cases: glycan notation: IUPAC condensed, linker removed
# [1] = molecular target: GalNAc(b1-4)GlcNAc(b1-2)Man
# Procedure, shortened: (§1)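 The Consortium for Functional Glycomics database supplied 3228 glycan arrays, of which those lacking an available protein sequence were dropped. The binding signal, a within-array Z-score, was averaged across arrays of the same protein sequence and across linkers. Negative scores can be read as non-binding.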
# [2] = molecular target: GalNAc(b1-4)GlcNAc(b1-2)Man(a1-3)[GalNAc(b1-4)GlcNAc(b1-2)Man(a1-6)]Man(b1-4)GlcNAc(b1-4)GlcNAc
# Procedure, shortened: as §1
# [3] = molecular target: GalNAc(b1-4)GlcNAc(b1-3)GalNAc(b1-4)GlcNAc
# Procedure, shortened: as §1
# GalNAc(b1-4)GlcNAc6S = molecular target: GalNAc(b1-4)GlcNAc6S
# Procedure, shortened: as §1
# GalNAc(b1-6)GalNAc = molecular target: GalNAc(b1-6)GalNAc
# Procedure, shortened: as §1
# GalNAc3S(b1-4)GlcNAc = molecular target: GalNAc3S(b1-4)GlcNAc
# Procedure, shortened: as §1
# GalNAc3S(b1-4)GlcNAc3S = molecular target: GalNAc3S(b1-4)GlcNAc3S
# Procedure, shortened: as §1
# [4] = molecular target: GalNAc3S(b1-4)[Fuc(a1-3)]GlcNAc
# Procedure, shortened: as §1
# GalNAc4S6S(b1-4)GlcNAc = molecular target: GalNAc4S6S(b1-4)GlcNAc
# Procedure, shortened: as §1
# GalNAc6S(b1-4)GlcNAc = molecular target: GalNAc6S(b1-4)GlcNAc
# Procedure, shortened: as §1
# Glc(a1-4)Glc = molecular target: Glc(a1-4)Glc
# Procedure, shortened: as §1
# [5] = molecular target: Glc(a1-4)Glc(a1-4)Glc(a1-4)Glc
# Procedure, shortened: as §1
# Glc(a1-6)Glc(a1-6)Glc = molecular target: Glc(a1-6)Glc(a1-6)Glc
# Procedure, shortened: as §1
# [6] = molecular target: Glc(a1-6)Glc(a1-6)Glc(a1-6)Glc
# Procedure, shortened: as §1
# Glc(b1-4)Glc = molecular target: Glc(b1-4)Glc
# Procedure, shortened: as §1
# Glc(b1-6)Glc = molecular target: Glc(b1-6)Glc
# Procedure, shortened: as §1
# GlcA(b1-3)Gal = molecular target: GlcA(b1-3)Gal
# Procedure, shortened: as §1
# GlcA(b1-3)GlcNAc = molecular target: GlcA(b1-3)GlcNAc
# Procedure, shortened: as §1
# GlcA(b1-6)Gal = molecular target: GlcA(b1-6)Gal
# Procedure, shortened: as §1
# [7] = molecular target: GlcA3S(b1-3)Gal(b1-4)GlcNAc(b1-2)Man
# Procedure, shortened: as §1
# [8] = molecular target: GlcA3S(b1-3)Gal(b1-4)GlcNAc(b1-3)Gal(b1-4)Glc
# Procedure, shortened: as §1
# [9] = molecular target: GlcNAc(a1-3)Gal(b1-4)GlcNAc
# Procedure, shortened: as §1
# [10] = molecular target: GlcNAc(a1-4)Gal(b1-3)GlcNAc
# Procedure, shortened: as §1
# [11] = molecular target: GlcNAc(a1-4)Gal(b1-4)GalNAc
# Procedure, shortened: as §1
# [12] = molecular target: GlcNAc(a1-4)Gal(b1-4)GlcNAc
# Procedure, shortened: as §1
# [13] = molecular target: GlcNAc(a1-4)Gal(b1-4)GlcNAc(b1-3)Gal(b1-4)Glc
# Procedure, shortened: as §1
# [14] = molecular target: GlcNAc(a1-4)Gal(b1-4)GlcNAc(b1-3)Gal(b1-4)GlcNAc
# Procedure, shortened: as §1
# [15] = molecular target: GlcNAc(a1-4)Gal(b1-4)GlcNAc(b1-3)Gal(b1-4)GlcNAc(b1-3)Gal(b1-4)GlcNAc
# Procedure, shortened: as §1
# [16] = molecular target: GlcNAc(a1-4)Gal(b1-4)GlcNAc(b1-3)Gal(b1-4)[Fuc(a1-3)]GlcNAc(b1-3)Gal(b1-4)[Fuc(a1-3)]GlcNAc
# Procedure, shortened: as §1
# [17] = molecular target: GlcNAc(a1-6)Gal(b1-4)GlcNAc
# Procedure, shortened: as §1
# [18] = molecular target: GlcNAc(b1-2)Gal(b1-3)GalNAc
# Procedure, shortened: as §1
# [19] = molecular target: GlcNAc(b1-2)Man(a1-3)[GlcNAc(b1-2)Man(a1-6)]Man(b1-4)GlcNAc(b1-4)GlcNAc
# Procedure, shortened: as §1
# [20] = molecular target: GlcNAc(b1-2)Man(a1-3)[GlcNAc(b1-2)Man(a1-6)]Man(b1-4)GlcNAc(b1-4)[Fuc(a1-6)]GlcNAc
# Procedure, shortened: as §1
# [21] = molecular target: GlcNAc(b1-2)Man(a1-3)[GlcNAc(b1-4)][GlcNAc(b1-2)Man(a1-6)]Man(b1-4)GlcNAc(b1-4)GlcNAc
# Procedure, shortened: as §1
# [22] = molecular target: GlcNAc(b1-2)Man(a1-3)[GlcNAc(b1-4)][GlcNAc(b1-2)Man(a1-6)]Man(b1-4)GlcNAc(b1-4)[Fuc(a1-6)]GlcNAc
# Procedure, shortened: as §1
# [23] = molecular target: GlcNAc(b1-2)[GlcNAc(b1-4)]Man(a1-3)[GlcNAc(b1-2)Man(a1-6)]Man(b1-4)GlcNAc(b1-4)GlcNAc
# Procedure, shortened: as §1
# [24] = molecular target: GlcNAc(b1-2)[GlcNAc(b1-4)]Man(a1-3)[GlcNAc(b1-4)][GlcNAc(b1-2)Man(a1-6)]Man(b1-4)GlcNAc(b1-4)GlcNAc
# Procedure, shortened: as §1
# [25] = molecular target: GlcNAc(b1-2)[GlcNAc(b1-4)]Man(a1-3)[GlcNAc(b1-4)][GlcNAc(b1-2)[GlcNAc(b1-6)]Man(a1-6)]Man(b1-4)GlcNAc(b1-4)GlcNAc
# Procedure, shortened: as §1
# [26] = molecular target: GlcNAc(b1-2)[GlcNAc(b1-4)]Man(a1-3)[GlcNAc(b1-4)][GlcNAc(b1-2)[GlcNAc(b1-6)]Man(a1-6)]Man(b1-4)GlcNAc(b1-4)[Fuc(a1-6)]GlcNAc
# Procedure, shortened: as §1
# [27] = molecular target: GlcNAc(b1-2)[GlcNAc(b1-6)]Man(a1-6)[GlcNAc(b1-2)Man(a1-3)]Man(b1-4)GlcNAc(b1-4)GlcNAc
# Procedure, shortened: as §1
# [28] = molecular target: GlcNAc(b1-2)[GlcNAc(b1-6)]Man(a1-6)[GlcNAc(b1-2)Man(a1-3)]Man(b1-4)GlcNAc(b1-4)[Fuc(a1-6)]GlcNAc
# Procedure, shortened: as §1
# [29] = molecular target: GlcNAc(b1-2)[GlcNAc(b1-6)]Man(a1-6)[GlcNAc(b1-4)][GlcNAc(b1-2)Man(a1-3)]Man(b1-4)GlcNAc(b1-4)GlcNAc
# Procedure, shortened: as §1
# GlcNAc(b1-3)Fuc = molecular target: GlcNAc(b1-3)Fuc
# Procedure, shortened: as §1
# GlcNAc(b1-3)Gal = molecular target: GlcNAc(b1-3)Gal
# Procedure, shortened: as §1
# [30] = molecular target: GlcNAc(b1-3)Gal(b1-3)GalNAc
# Procedure, shortened: as §1
binder,measurement,setting,value
Mnn9-2N3 (Aspergillus fumigatus) (protein) MAVARRMRRTNPITLLLAAILAIGFFIFVLSPSTTSASPVKAGSASSSSTSQQRREDNAAENPLSPPTKPFFKSQPVRHDGQQAPPPVVQYNLNQLSSTSTSAANGERILILTPMARFVPEYWDNVVKLTYPHELISIGFIIPKNKEGNAALAALEAAIAKTQSGPIDKRFASISILRQDFEPPLQSQDEKERHKISNQKARRESMSRARNSLLFTTLGPATAWVLWLDADIVETPPTLIQDLTAHDHPVLVPNCYQRYYNSEKKKMDVRPYDYNSWIDSSTAQSMAAEMGPDEILLEGYAEMPTYRTLMAHLADTANPNPKKVIELDGVGGTALMVKAEVHRDGAMFPAFPFYHLVETEGFAKMAKRLGYSVYGLPDYFVSRNFFFFFFFFFFG,glycan array binding signal (z-score),[1],-0.117
same,glycan array binding signal (z-score),[2],-0.507
same,glycan array binding signal (z-score),[3],-0.285
same,glycan array binding signal (z-score),GalNAc(b1-4)GlcNAc6S,-0.484
same,glycan array binding signal (z-score),GalNAc(b1-6)GalNAc,-0.275
same,glycan array binding signal (z-score),GalNAc3S(b1-4)GlcNAc,-0.505
same,glycan array binding signal (z-score),GalNAc3S(b1-4)GlcNAc3S,-0.856
same,glycan array binding signal (z-score),[4],-0.385
same,glycan array binding signal (z-score),GalNAc4S6S(b1-4)GlcNAc,-0.839
same,glycan array binding signal (z-score),GalNAc6S(b1-4)GlcNAc,-0.802
same,glycan array binding signal (z-score),Glc(a1-4)Glc,0.556
same,glycan array binding signal (z-score),[5],-2.33
same,glycan array binding signal (z-score),Glc(a1-6)Glc(a1-6)Glc,1.82
same,glycan array binding signal (z-score),[6],-0.815
same,glycan array binding signal (z-score),Glc(b1-4)Glc,0.692
same,glycan array binding signal (z-score),Glc(b1-6)Glc,-0.132
same,glycan array binding signal (z-score),GlcA(b1-3)Gal,0.326
same,glycan array binding signal (z-score),GlcA(b1-3)GlcNAc,-0.721
same,glycan array binding signal (z-score),GlcA(b1-6)Gal,-0.442
same,glycan array binding signal (z-score),[7],-0.254
same,glycan array binding signal (z-score),[8],-1.04
same,glycan array binding signal (z-score),[9],0.276
same,glycan array binding signal (z-score),[10],-0.193
same,glycan array binding signal (z-score),[11],-0.428
same,glycan array binding signal (z-score),[12],-0.088
same,glycan array binding signal (z-score),[13],-0.061
same,glycan array binding signal (z-score),[14],0.007
same,glycan array binding signal (z-score),[15],-0.067
same,glycan array binding signal (z-score),[16],-0.189
same,glycan array binding signal (z-score),[17],0.159
same,glycan array binding signal (z-score),[18],0.148
same,glycan array binding signal (z-score),[19],0.173
same,glycan array binding signal (z-score),[20],-0.486
same,glycan array binding signal (z-score),[21],-0.144
same,glycan array binding signal (z-score),[22],0.138
same,glycan array binding signal (z-score),[23],-0.363
same,glycan array binding signal (z-score),[24],0.657
same,glycan array binding signal (z-score),[25],-0.559
same,glycan array binding signal (z-score),[26],1.36
same,glycan array binding signal (z-score),[27],2.16
same,glycan array binding signal (z-score),[28],0.58
same,glycan array binding signal (z-score),[29],0.567
same,glycan array binding signal (z-score),GlcNAc(b1-3)Fuc,-0.718
same,glycan array binding signal (z-score),GlcNAc(b1-3)Gal,1.58
same,glycan array binding signal (z-score),[30],-0.43

# Looked up one by one from the entries so far:
binder,measurement,setting,value
Mnn9-2N3 (Aspergillus fumigatus) (protein) MAVARRMRRTNPITLLLAAILAIGFFIFVLSPSTTSASPVKAGSASSSSTSQQRREDNAAENPLSPPTKPFFKSQPVRHDGQQAPPPVVQYNLNQLSSTSTSAANGERILILTPMARFVPEYWDNVVKLTYPHELISIGFIIPKNKEGNAALAALEAAIAKTQSGPIDKRFASISILRQDFEPPLQSQDEKERHKISNQKARRESMSRARNSLLFTTLGPATAWVLWLDADIVETPPTLIQDLTAHDHPVLVPNCYQRYYNSEKKKMDVRPYDYNSWIDSSTAQSMAAEMGPDEILLEGYAEMPTYRTLMAHLADTANPNPKKVIELDGVGGTALMVKAEVHRDGAMFPAFPFYHLVETEGFAKMAKRLGYSVYGLPDYFVSRNFFFFFFFFFFG,glycan array binding signal (z-score),[10],-0.193
same,glycan array binding signal (z-score),GalNAc(b1-4)GlcNAc6S,-0.484
same,glycan array binding signal (z-score),[7],-0.254
